From patent publication US8088927B2, “Fungicide N-cycloalkyl-benzyl-amide derivatives” (Bayer Cropscience AG, priority 2006, dated 2012)
Some of these results come from one statement about several compounds together.

Tests used:
[1] = tested on: Alternia brassicae; assay: In vivo preventive test on Alternia brassicae (leaf spot of crucifers); conditions: dose of 500 ppm, preventive spray, radish plants, grading 6 to 7 days after contamination
[2] = tested on: Sphaerotheca fuliginea; assay: In vivo preventive test on Sphaerotheca fuliginea (cucurbit powdery mildew); conditions: dose of 500 ppm, preventive spray, gherkin plants, grading 21 days after contamination
[3] = tested on: Mycosphaerella graminicola; assay: In vivo preventive test on Mycosphaerella graminicola (wheat leaf spot); conditions: dose of 500 ppm, preventive spray, wheat plants, grading 21 to 28 days after contamination
[4] = tested on: Pyrenophora teres; assay: In vivo preventive test on Pyrenophora teres (barley net blotch); conditions: dose of 500 ppm, preventive spray, barley plants, grading 12 days after contamination

Measured: good (at least 70%) or total protection

Cc1nn(C)c(F)c1C(=O)N(Cc1c(Cl)cc(Cl)cc1Cl)C1CC1 [Compound 238]
at least 70%: all assays above

CC(c1ccc(Cl)cc1Cl)N(C(=O)c1c(C(F)(F)F)nn(C)c1F)C1CC1 (stereo not drawn) [Compound 480]
at least 70%: all assays above

Cn1cc(C(=O)N(Cc2ccc(C(F)(F)F)cc2)C2CC2)c(C(F)(F)F)c1 [Compound 100]
at least 70%: all assays above

CCCC(c1ccc(Cl)cc1Cl)N(C(=O)c1c(C)nn(C)c1F)C1CC1 (stereo not drawn) [Compound 387]
at least 70%: all assays above

CC(c1ccc(C(F)(F)F)cc1)N(C(=O)c1cn(C)nc1C(F)F)C1CC1 (stereo not drawn) [Compound 246]
at least 70%: all assays above

Cc1nc(C(F)F)c(C(=O)N(C2CC2)C(C)c2ccc(Cl)cc2Cl)s1 (stereo not drawn) [Compound 173]
at least 70%: all assays above

CC(c1ccc(Cl)cc1Cl)N(C(=O)c1cn(C)nc1I)C1CC1 (stereo not drawn) [Compound 266]
at least 70%: [1] | [2] | [4]

Cc1cc(C(=O)N(Cc2c(Cl)cc(Cl)cc2Cl)C2CC2)c(C)o1 [Compound 27]
at least 70%: all assays above

Cc1nn(C)c(F)c1C(=O)N(Cc1ccc(F)c(Oc2ccccc2)c1)C1CC1 [Compound 421]
at least 70%: all assays above

COc1nn(C)cc1C(=O)N(C1CC1)C(C)c1ccc(Cl)cc1Cl (stereo not drawn) [Compound 264]
at least 70%: [1] | [2] | [4]

Cn1cc(C(=O)N(Cc2c(Cl)cccc2Cl)C2CC2)c(C(F)F)n1 [Compound 354]
at least 70%: all assays above

Cn1nc(C(F)(F)F)c(C(=O)N(Cc2c(Cl)cc(Cl)cc2Cl)C2CC2)c1F [Compound 481]
at least 70%: all assays above

Cn1cc(C(=O)N(Cc2c(Cl)cc(Cl)cc2Cl)C2CC2)c(C(F)F)n1 [Compound 243]
at least 70%: all assays above

Cc1nn(C)c(F)c1C(=O)N(C1CC1)C(C)c1cc(C(F)(F)F)ccc1Cl (stereo not drawn) [Compound 390]
at least 70%: all assays above

CC(c1ccc(Cl)cc1Cl)N(C(=O)c1cn(C)nc1C(F)F)C1CC1 (stereo not drawn) [Compound 245]
at least 70%: all assays above

Cc1nn(C)c(F)c1C(=O)N(Cc1c(Cl)cc(C(F)(F)F)cc1Cl)C1CC1 [Compound 351]
at least 70%: all assays above

Cn1cc(C(=O)N(Cc2ccc(Cl)c(Cl)c2Cl)C2CC2)c(C(F)F)n1 [Compound 275]
at least 70%: all assays above

Cc1cc(C)c(CN(C(=O)c2c(C)nn(C)c2F)C2CC2)c(C)c1 [Compound 301]
at least 70%: all assays above

Cn1cc(C(=O)N(Cc2c(Cl)cc(C(F)(F)F)cc2Cl)C2CC2)c(C(F)F)n1 [Compound 353]
at least 70%: all assays above

Cn1cc(C(=O)N(Cc2c(Cl)cc(Cl)cc2Cl)C2CC2)c(I)n1 [Compound 258]
at least 70%: all assays above

Cc1nn(C)c(F)c1C(=O)N(Cc1ccccc1C(F)(F)F)C1CC1 [Compound 380]
at least 70%: [1] | [2] | [4]

Cc1nn(C)cc1C(=O)N(Cc1ccc(Cl)cc1Cl)C1CC1 [Compound 324]
at least 70%: all assays above

Cn1cc(C(=O)N(Cc2c(Cl)cc(Cl)cc2Cl)C2CC2)c(C(F)(F)F)n1 [Compound 256]
at least 70%: all assays above

COC(=O)C(c1ccccc1Cl)N(C(=O)c1cn(C)nc1C(F)F)C1CC1 (stereo not drawn) [Compound 484]
at least 70%: all assays above

Cc1nn(C)c(F)c1C(=O)N(C1CC1)C(C)c1ccc(F)c(Oc2ccccc2)c1 (stereo not drawn) [Compound 420]
at least 70%: all assays above

Cn1cc(C(=O)N(Cc2cccc(OC(F)(F)F)c2)C2CC2)c(C(F)F)n1 [Compound 310]
at least 70%: all assays above

Cn1nc(C(F)(F)F)c(C(=O)N(Cc2ccc(Cl)cc2Cl)C2CC2)c1F [Compound 479]
at least 70%: all assays above

CCC(c1ccc(C(F)(F)F)cc1)N(C(=O)c1c(C)nn(C)c1F)C1CC1 (stereo not drawn) [Compound 423]
at least 70%: all assays above

Cn1nc(C(F)(F)F)c(C(=O)N(Cc2ccc(C(F)(F)F)cc2Cl)C2CC2)c1F [Compound 478]
at least 70%: all assays above

Cc1nn(C)c(F)c1C(=O)N(Cc1c(Cl)cccc1C(F)(F)F)C1CC1 [Compound 397]
at least 70%: all assays above

Cc1nn(C)c(F)c1C(=O)N(Cc1cc(C(F)(F)F)ccc1Cl)C1CC1 [Compound 395]
at least 70%: all assays above

Cc1nn(C)c(F)c1C(=O)N(Cc1c(Cl)cccc1Cl)C1CC1 [Compound 352]
at least 70%: all assays above

Cc1nn(C)cc1C(=O)N(Cc1c(Cl)cc(Cl)cc1Cl)C1CC1 [Compound 329]
at least 70%: all assays above
